The chains are these.
T1: fluorescein-labeled BP230 peptide 26-55 (human, UniProt Q03001-8 26-55, N-terminal fluorescein)
T1 peptide (looked up): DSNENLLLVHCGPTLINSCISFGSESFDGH

T2: GST-β4 (1436-1666)-T1663R (human) (UniProt P16144)
T2 sequence: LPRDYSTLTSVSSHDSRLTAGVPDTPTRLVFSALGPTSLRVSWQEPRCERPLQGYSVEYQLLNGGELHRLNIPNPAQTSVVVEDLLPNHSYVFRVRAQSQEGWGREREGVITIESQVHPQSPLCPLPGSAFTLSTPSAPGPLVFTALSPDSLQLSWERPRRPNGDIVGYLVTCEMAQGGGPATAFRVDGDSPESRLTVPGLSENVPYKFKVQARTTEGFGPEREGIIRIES

B1: β4-FnIII-3,4 (1457-1666) (domain or fragment, UniProt P16144-2 1457-1666)
chain: VPDTPTRLVFSALGPTSLRVSWQEPRCERPLQGYSVEYQLLNGGELHRLNIPNPAQTSVVVEDLLPNHSYVFRVRAQSQEGWGREREGVITIESQVHPQSPLCPLPGSAFTLSTPSAPGPLVFTALSPDSLQLSWERPRRPNGDIVGYLVTCEMAQGGGPATAFRVDGDSPESRLTVPGLSENVPYKFKVQARTTEGFGPEREGIITIES
B2: β4 FnIII-4 (1572-1666) (domain or fragment, UniProt P16144-2 1572-1666)
chain: SAPGPLVFTALSPDSLQLSWERPRRPNGDIVGYLVTCEMAQGGGPATAFRVDGDSPESRLTVPGLSENVPYKFKVQARTTEGFGPEREGIITIES
B3: β4 FnIII-3 (1457-1548) (domain or fragment, UniProt P16144-2 1457-1548)
chain: VPDTPTRLVFSALGPTSLRVSWQEPRCERPLQGYSVEYQLLNGGELHRLNIPNPAQTSVVVEDLLPNHSYVFRVRAQSQEGWGREREGVITI
B4: β4-CS-FnIII-3,4 (1436-1666) Q1479R (domain or fragment, UniProt P16144-2 1436-1666)
chain: T2 sequence with Q44R, R228T
B5: β4-CS-FnIII-3,4 (1436-1666) R1540A (domain or fragment, UniProt P16144-2 1436-1666)
chain: T2 sequence with R105A, R228T
B6: β4-CS-FnIII-3,4 (1436-1666) F1654R (domain or fragment, UniProt P16144-2 1436-1666)
chain: T2 sequence with F219R, R228T
B7: β4-CS-FnIII-3,4 (1436-1666) E1501R (domain or fragment, UniProt P16144-2 1436-1666)
chain: T2 sequence with E66R, R228T
B8: β4-CS-FnIII-3,4 (1436-1666) R1482E/E1484R/R1485E (domain or fragment, UniProt P16144-2 1436-1666)
chain: T2 sequence with R47E, E49R, R50E, R228T
B9: β4-CS-FnIII-3,4 (1436-1666) R1540E/R1542E (domain or fragment, UniProt P16144-2 1436-1666)
chain: T2 sequence with R105E, R107E, R228T
B10: β4-CS-FnIII-3,4 (1436-1666) D1600R (domain or fragment, UniProt P16144-2 1436-1666)
chain: T2 sequence with D165R, R228T
B11: β4-CS-FnIII-3,4 (1436-1666) N1498R (domain or fragment, UniProt P16144-2 1436-1666)
chain: T2 sequence with N63R, R228T
B12: β4-CS-FnIII-3,4 (1436-1666) Q1535A (domain or fragment, UniProt P16144-2 1436-1666)
chain: T2 sequence with Q100A, R228T
B13: β4-CS-FnIII-3,4 (1436-1666) A1468D (domain or fragment, UniProt P16144-2 1436-1666)
chain: T2 sequence with A33D, R228T
B14: β4-CS-FnIII-3,4 (1436-1666) R1475E (domain or fragment, UniProt P16144-2 1436-1666)
chain: T2 sequence with R40E, R228T
B15: β4-CS-FnIII-3,4 (1436-1666) A1468R (domain or fragment, UniProt P16144-2 1436-1666)
chain: T2 sequence with A33R, R228T
B16: β4-CS-FnIII-3,4 (1436-1666) I1661R (domain or fragment, UniProt P16144-2 1436-1666)
chain: T2 sequence with I226R, R228T
B17: β4-CS-FnIII-3,4 (1436-1666) R1542A (domain or fragment, UniProt P16144-2 1436-1666)
chain: T2 sequence with R107A, R228T
B18: β4-CS-FnIII-3,4 (1436-1666) R1504E (domain or fragment, UniProt P16144-2 1436-1666)
chain: T2 sequence with R69E, R228T
B19: β4-CS-FnIII-3,4 (1436-1666) S1637R/E1638R (domain or fragment, UniProt P16144-2 1436-1666)
chain: T2 sequence with S202R, E203R, R228T
B20: β4-CS-FnIII-3,4 (1436-1666) T1547R (domain or fragment, UniProt P16144-2 1436-1666)
chain: T2 sequence with T112R, R228T
B21: β4-CS-FnIII-3,4 (1436-1666) Q1535R/E1536R (domain or fragment, UniProt P16144-2 1436-1666)
chain: T2 sequence with Q100R, E101R, R228T
B22: β4-CS-FnIII-3,4 (1436-1666) T1632R/P1634R (domain or fragment, UniProt P16144-2 1436-1666)
chain: T2 sequence with T197R, P199R, R228T
B23: β4-CS-FnIII-3,4 (1436-1666) R1595E/R1596E (domain or fragment, UniProt P16144-2 1436-1666)
chain: T2 sequence with R160E, R161E, R228T
B24: β4-CS-FnIII-3,4 (1436-1666) E1493R (domain or fragment, UniProt P16144-2 1436-1666)
chain: T2 sequence with E58R, R228T
B25: β4-CS-FnIII-3,4 (1436-1666) E1541R/E1543R (domain or fragment, UniProt P16144-2 1436-1666)
chain: T2 sequence with E106R, E108R, R228T
B26: β4-CS-FnIII-3,4 (1436-1666) E1536R (domain or fragment, UniProt P16144-2 1436-1666)
chain: T2 sequence with E101R, R228T
B27: β4-CS-FnIII-3,4 (1436-1666) R1475A (domain or fragment, UniProt P16144-2 1436-1666)
chain: T2 sequence with R40A, R228T
B28: β4-CS-FnIII-3,4 (1436-1666) R1542E (domain or fragment, UniProt P16144-2 1436-1666)
chain: T2 sequence with R107E, R228T
B29: β4-CS-FnIII-3,4 (1436-1666) Q1512R (domain or fragment, UniProt P16144-2 1436-1666)
chain: T2 sequence with Q77R, R228T
B30: β4-CS-FnIII-3,4 (1436-1666) E1536A (domain or fragment, UniProt P16144-2 1436-1666)
chain: T2 sequence with E101A, R228T
B31: β4-CS-FnIII-3,4 (1436-1666) P1616R/T1618R (domain or fragment, UniProt P16144-2 1436-1666)
chain: T2 sequence with P181R, T183R, R228T
B32: β4-CS-FnIII-3,4 (1436-1666) E1628R/R1630E (domain or fragment, UniProt P16144-2 1436-1666)
chain: T2 sequence with E193R, R195E, R228T
B33: β4-CS-FnIII-3,4 (1436-1666) R1540E (domain or fragment, UniProt P16144-2 1436-1666)
chain: T2 sequence with R105E, R228T
B34: β4-CS-FnIII-3,4 (1436-1666) Q1535R (domain or fragment, UniProt P16144-2 1436-1666)
chain: T2 sequence with Q100R, R228T
B35: β4-CS-FnIII-3,4 (1436-1666) V1578R/T1580R (domain or fragment, UniProt P16144-2 1436-1666)
chain: T2 sequence with V143R, T145R, R228T
B36: β4-CS-FnIII-3,4 (1436-1666) E1480R (domain or fragment, UniProt P16144-2 1436-1666)
chain: T2 sequence with E45R, R228T
B37: β4-CS-FnIII-3,4 (1436-1666) R1621E/D1623R (domain or fragment, UniProt P16144-2 1436-1666)
chain: T2 sequence with R186E, D188R, R228T
B38: FLAG-BP230 (19-162) (domain or fragment, UniProt Q03001-8 19-162)
chain: TSTRTSLDSNENLLLVHCGPTLINSCISFGSESFDGHRLEMLQQIANRVQRDSVICEDKLILAGNALQSDSKRLESGVQFQNEAEIAGYILECENLLRQHVIDVQILIDGKYYQADQLVQRVAKLRDEIMALRNECSSVYSKGR
B39: FLAG-BP230 (19-162) S43D (domain or fragment, UniProt Q03001-8 19-162)
chain: B38 chain with S25D
B40: FLAG-BP230 (19-162) S49D (domain or fragment, UniProt Q03001-8 19-162)
chain: B38 chain with S31D
B41: FLAG-BP230 (19-162) S27D (domain or fragment, UniProt Q03001-8 19-162)
chain: B38 chain with S9D
B42: FLAG-BP230 (19-162) S51D (domain or fragment, UniProt Q03001-8 19-162)
chain: B38 chain with S33D
B43: FLAG-BP230 (19-162) S46D (domain or fragment, UniProt Q03001-8 19-162)
chain: B38 chain with S28D
B44: FLAG-BP230 (19-162) T39D (domain or fragment, UniProt Q03001-8 19-162)
chain: B38 chain with T21D

In article doi:10.1101/402123 (bioRxiv, 2018) one finds binding data, which are given here for 44 molecules.

Where a chain is given by its changes, count along the chain named. In names and notes the source's numbering stands. These are yes or no findings as the source states them, for the method shown. For some assays here: In cells and extracts the contact can be indirect. Some results given as binding are weak or reduced against the parent protein; the word gives no strength. For some assays here: Sequences can lack the tags named with a protein.

The target in one assay is T1, fluorescein-labeled BP230 peptide 26-55. Put plainly: fluorescence polarisation.
For B1, the binding entry was “binds weakly”. Same read-out and setting: next, B2: “no binding”; B3: “no binding”. Still for that read-out and setting: next, B4: “binds weakly”; B5: “binds weakly”; B6: “binds weakly”. Same read-out and setting: next, B7: “binds weakly”; B8: “binds weakly”; B9: “binds weakly”. For B10, the binding entry is reported as “binds weakly”. Same read-out and setting: next, B11: “binds weakly”; B12: “binds weakly”; B13: “binds weakly”.

With B14, the binding entry is “binds weakly”. The same measure, in the same setting: the result for B15 reads “binds weakly”. As to B16, the binding result was “binds weakly”. As to B17, the binding result was “binds weakly”. B18: the binding entry is listed as “binds weakly”. Same read-out and setting: next, B19: “binds weakly”; B20: “binds weakly”.

For B21, the binding entry is reported as “binds weakly”.

As to B22, the binding result is “binds weakly”. Still for that read-out and setting: next, B23: “binds weakly”. The same measure, in the same setting: the result for B24 reads “binds weakly”; that for B25, “binds weakly”; that for B26, “binds weakly”. Same read-out and setting: next, B27: “binds weakly”; B28: “binds weakly”; B29: “binds weakly”. B30: the binding result is given as “binds weakly”. Still for that read-out and setting: next, B31: “binds weakly”; B32: “binds weakly”. As for B33, the binding entry is on record as “binds weakly”. Still for that read-out and setting: the result for B34 reads “binds weakly”; that for B35, “binds weakly”; that for B36, “binds weakly”. The same measure, in the same setting: next, B37: “binds weakly”.

For the next assay, the target named is T2, GST-β4 (1436-1666)-T1663R (human). Put plainly: pull-down.
Turning to B38, the binding entry is reported as “binds”. On the same count and under the same terms, next, B39: “binds”; B40: “binds”.

For B41, the binding entry is recorded as “binds”. B42: the binding entry was “binds”.

On to B43, for which the binding result was “no binding”. On to B44, for which the binding result was “binds weakly”.
